Compound in the experiment: Nc1ncnc2c1ncn2[C@@H]1O[C@H](COP(=O)(O)OP(=O)(O)OP(=O)(O)O)[C@@H](O)[C@H]1O [adenosine triphosphate]
In words: NP40-soluble protein abundance relative to vehicle (solubility fold change) (ratio); higher = more soluble protein in presence of ATP. The method in brief:
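Values are fold changes against the detergent-processed vehicle, based on vsn-normalised intensities. Jurkat crude lysate was treated at eight concentrations from 0.1 to 10 mM (10 min at room temperature, then 3 min at 37 °C), solubilised with 0.8% NP40 and benzonase, ultracentrifuged and analysed by TMT-labelled LC-MS/MS over three independent experiments.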

Sequences of proteins named here, by UniProt entry; tags and fusion partners are left off. A change or cut given only in a name is not applied to a line headed by its entry.
UniProt Q8IZC7: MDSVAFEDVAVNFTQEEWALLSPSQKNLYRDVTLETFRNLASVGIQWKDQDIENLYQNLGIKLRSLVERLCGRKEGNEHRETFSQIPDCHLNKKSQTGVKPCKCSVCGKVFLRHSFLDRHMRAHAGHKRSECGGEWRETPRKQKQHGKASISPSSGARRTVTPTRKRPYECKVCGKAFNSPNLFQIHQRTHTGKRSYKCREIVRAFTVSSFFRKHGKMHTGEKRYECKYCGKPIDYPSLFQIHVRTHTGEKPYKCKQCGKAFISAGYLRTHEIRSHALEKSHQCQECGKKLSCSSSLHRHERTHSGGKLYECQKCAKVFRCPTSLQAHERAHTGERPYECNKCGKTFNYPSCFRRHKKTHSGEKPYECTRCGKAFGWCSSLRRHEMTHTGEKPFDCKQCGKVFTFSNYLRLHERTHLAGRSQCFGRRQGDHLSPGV
UniProt Q8N573: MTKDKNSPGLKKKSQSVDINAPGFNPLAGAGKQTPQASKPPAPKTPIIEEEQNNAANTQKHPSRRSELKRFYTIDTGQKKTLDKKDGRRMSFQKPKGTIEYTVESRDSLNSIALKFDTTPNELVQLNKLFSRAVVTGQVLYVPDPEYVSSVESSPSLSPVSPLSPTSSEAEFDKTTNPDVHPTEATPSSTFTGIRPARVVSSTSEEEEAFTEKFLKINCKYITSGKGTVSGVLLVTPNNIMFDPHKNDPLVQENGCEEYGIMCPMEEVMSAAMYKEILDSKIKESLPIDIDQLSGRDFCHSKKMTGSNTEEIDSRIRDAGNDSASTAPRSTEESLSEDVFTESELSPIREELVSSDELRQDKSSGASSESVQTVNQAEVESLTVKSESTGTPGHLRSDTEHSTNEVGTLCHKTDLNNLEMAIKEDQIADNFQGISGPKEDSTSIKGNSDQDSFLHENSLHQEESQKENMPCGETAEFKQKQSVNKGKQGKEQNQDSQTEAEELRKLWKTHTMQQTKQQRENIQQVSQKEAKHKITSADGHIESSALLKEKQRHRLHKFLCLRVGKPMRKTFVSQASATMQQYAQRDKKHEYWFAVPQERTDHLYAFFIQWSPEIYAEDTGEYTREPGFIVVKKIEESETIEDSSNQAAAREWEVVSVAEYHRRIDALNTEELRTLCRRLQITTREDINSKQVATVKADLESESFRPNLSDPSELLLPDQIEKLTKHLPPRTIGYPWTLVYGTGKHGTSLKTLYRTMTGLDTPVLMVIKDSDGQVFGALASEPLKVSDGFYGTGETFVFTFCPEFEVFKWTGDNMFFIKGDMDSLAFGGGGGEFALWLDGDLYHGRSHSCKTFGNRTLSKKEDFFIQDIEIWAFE
UniProt Q8N1B4: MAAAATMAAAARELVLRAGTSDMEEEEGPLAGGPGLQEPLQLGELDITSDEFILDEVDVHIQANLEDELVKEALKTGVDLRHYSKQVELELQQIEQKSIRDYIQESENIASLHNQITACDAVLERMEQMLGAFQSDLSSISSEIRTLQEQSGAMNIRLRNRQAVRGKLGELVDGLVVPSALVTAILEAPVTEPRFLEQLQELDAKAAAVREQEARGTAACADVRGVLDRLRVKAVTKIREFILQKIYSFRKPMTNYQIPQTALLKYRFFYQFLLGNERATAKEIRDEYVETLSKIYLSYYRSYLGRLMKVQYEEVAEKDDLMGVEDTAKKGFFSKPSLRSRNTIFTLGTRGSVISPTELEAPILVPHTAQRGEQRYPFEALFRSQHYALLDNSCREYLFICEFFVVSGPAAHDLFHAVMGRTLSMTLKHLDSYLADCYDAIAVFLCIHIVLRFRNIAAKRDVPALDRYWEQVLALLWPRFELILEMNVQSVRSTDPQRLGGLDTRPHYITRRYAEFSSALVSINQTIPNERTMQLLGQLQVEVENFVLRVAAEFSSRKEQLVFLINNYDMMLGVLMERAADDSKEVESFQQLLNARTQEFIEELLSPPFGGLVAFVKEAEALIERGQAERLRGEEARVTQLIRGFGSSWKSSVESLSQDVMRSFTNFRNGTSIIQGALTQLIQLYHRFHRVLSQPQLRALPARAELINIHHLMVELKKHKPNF
UniProt Q8NHP8: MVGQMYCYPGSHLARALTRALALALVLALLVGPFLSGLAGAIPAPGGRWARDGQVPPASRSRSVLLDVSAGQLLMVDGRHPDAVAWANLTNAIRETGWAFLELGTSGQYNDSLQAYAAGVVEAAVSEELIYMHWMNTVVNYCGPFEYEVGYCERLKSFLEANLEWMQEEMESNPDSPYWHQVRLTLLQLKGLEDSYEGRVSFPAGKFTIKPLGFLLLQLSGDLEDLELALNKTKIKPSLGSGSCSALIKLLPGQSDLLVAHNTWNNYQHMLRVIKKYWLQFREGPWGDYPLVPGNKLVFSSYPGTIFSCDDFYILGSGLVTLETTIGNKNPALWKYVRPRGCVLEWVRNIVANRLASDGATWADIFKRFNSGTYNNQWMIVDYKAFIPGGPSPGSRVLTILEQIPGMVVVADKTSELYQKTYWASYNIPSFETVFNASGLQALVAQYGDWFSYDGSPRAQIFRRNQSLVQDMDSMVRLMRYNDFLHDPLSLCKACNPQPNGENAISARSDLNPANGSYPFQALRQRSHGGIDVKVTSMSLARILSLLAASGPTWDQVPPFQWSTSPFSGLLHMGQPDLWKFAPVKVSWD
UniProt Q8N3U4: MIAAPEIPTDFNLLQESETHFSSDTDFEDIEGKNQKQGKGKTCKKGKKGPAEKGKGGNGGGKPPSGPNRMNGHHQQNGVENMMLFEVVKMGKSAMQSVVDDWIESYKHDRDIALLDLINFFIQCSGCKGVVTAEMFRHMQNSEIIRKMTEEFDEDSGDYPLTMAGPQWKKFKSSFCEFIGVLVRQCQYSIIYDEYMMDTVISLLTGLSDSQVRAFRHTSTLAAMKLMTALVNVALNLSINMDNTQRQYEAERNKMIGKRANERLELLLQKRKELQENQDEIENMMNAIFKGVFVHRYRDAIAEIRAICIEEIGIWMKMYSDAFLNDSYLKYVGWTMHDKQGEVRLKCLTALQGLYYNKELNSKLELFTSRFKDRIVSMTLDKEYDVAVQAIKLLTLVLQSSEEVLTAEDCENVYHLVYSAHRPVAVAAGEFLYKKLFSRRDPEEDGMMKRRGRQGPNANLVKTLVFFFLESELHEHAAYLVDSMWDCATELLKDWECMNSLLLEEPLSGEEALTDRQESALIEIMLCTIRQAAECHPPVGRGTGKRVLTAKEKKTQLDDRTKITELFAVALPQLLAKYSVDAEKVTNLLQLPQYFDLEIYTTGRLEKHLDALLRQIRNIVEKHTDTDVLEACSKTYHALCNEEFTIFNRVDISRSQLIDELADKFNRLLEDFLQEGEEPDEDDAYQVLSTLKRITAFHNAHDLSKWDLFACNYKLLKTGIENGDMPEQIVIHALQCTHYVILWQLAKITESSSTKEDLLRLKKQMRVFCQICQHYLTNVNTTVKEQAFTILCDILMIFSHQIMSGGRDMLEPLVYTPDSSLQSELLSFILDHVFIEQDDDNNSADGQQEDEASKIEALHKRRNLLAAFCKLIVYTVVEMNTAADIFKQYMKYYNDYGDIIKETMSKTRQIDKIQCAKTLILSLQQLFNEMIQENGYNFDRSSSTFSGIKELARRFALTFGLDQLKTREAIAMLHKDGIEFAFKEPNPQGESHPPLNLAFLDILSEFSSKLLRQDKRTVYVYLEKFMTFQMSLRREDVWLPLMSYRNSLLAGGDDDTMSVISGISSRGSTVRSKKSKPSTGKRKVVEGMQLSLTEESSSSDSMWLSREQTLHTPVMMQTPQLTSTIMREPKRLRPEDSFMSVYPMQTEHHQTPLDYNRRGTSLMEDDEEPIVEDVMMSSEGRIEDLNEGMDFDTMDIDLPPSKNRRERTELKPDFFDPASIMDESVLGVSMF
UniProt Q8N6T7, whole entry: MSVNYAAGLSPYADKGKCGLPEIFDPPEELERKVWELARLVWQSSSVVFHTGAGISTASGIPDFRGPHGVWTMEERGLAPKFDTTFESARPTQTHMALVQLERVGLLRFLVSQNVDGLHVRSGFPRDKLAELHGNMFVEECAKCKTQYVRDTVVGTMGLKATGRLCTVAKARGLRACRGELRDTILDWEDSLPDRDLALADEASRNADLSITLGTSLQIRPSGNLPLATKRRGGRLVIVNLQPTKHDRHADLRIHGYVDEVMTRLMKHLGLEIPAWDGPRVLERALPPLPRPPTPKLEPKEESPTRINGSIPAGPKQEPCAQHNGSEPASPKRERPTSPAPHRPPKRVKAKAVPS
UniProt Q8IW45: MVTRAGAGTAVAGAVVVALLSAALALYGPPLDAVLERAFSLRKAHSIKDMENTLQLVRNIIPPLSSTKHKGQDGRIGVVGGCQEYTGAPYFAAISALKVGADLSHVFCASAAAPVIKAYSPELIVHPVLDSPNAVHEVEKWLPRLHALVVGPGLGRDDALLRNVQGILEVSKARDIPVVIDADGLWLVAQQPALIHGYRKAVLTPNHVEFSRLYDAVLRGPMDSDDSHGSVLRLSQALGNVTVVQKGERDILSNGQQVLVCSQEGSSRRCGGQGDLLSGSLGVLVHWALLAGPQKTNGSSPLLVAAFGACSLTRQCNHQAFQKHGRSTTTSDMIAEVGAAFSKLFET

± gives the standard deviation of the averaged measurements. The entries are a selection whose mix differs from that of the whole data set.

As to UniProt Q8IZC7 and related entries, the NP40-soluble protein abundance (concentration: 1mM) stood at 0.981 ± 0.18; the NP40-soluble protein abundance (concentration: 2mM) came to 0.991 ± 0.21; the NP40-soluble protein abundance (concentration: 4mM) came out at 0.858 ± 0.27; the NP40-soluble protein abundance (concentration: 6mM) stood at 0.862 ± 0.24; the NP40-soluble protein abundance (concentration: 8mM) turned out to be 0.895 ± 0.13; the NP40-soluble protein abundance (concentration: 10mM) was determined as 0.856 ± 0.17.
MRPL41 (UniProt Q8IXM3): the NP40-soluble protein abundance worked out at 0.99 ± 0.21 (concentration: 1mM); 0.837 ± 0.31 (concentration: 2mM); 0.773 ± 0.21 (concentration: 4mM); 0.743 ± 0.4 (concentration: 6mM); 0.698 ± 0.27 (concentration: 8mM); 0.695 ± 0.28 (concentration: 10mM).
As for UniProt Q8N573 and related entries, the NP40-soluble protein abundance worked out at 0.985 ± 0.02 (concentration: 1mM); 1 ± 0.028 (concentration: 2mM); 0.979 ± 0.047 (concentration: 4mM); 0.988 ± 0.076 (concentration: 6mM); 0.939 ± 0.038 (concentration: 8mM); 0.974 ± 0.018 (concentration: 10mM).
With VPS52 (UniProt Q8N1B4), the NP40-soluble protein abundance (concentration: 1mM) is 1.06 ± 0.079; the NP40-soluble protein abundance (concentration: 2mM) came to 0.996 ± 0.049; the NP40-soluble protein abundance (concentration: 4mM) turned out to be 0.991 ± 0.06; the NP40-soluble protein abundance (concentration: 6mM) came to 0.961 ± 0.041; the NP40-soluble protein abundance (concentration: 8mM) was determined as 1.01 ± 0.067; the NP40-soluble protein abundance (concentration: 10mM) came out at 0.973 ± 0.049.
On to UniProt Q8NHP8 and related entries, for which the NP40-soluble protein abundance (concentration: 1mM) turned out to be 0.878 ± 0.018; the NP40-soluble protein abundance (concentration: 2mM) turned out to be 0.946 ± 0.075; the NP40-soluble protein abundance (concentration: 4mM) was found to be 0.92 ± 0.049; the NP40-soluble protein abundance (concentration: 6mM) was determined as 0.872 ± 0.049; the NP40-soluble protein abundance (concentration: 8mM) was found to be 0.88 ± 0.017; the NP40-soluble protein abundance (concentration: 10mM) was determined as 0.909 ± 0.037.
For the target UniProt Q8N3U4 and related entries, the NP40-soluble protein abundance by setting is: (concentration: 1mM) 1.08 ± 0.15; (concentration: 2mM) 1.04 ± 0.11; (concentration: 4mM) 1.01 ± 0.068; (concentration: 6mM) 0.928 ± 0.14; (concentration: 8mM) 1.06 ± 0.063; (concentration: 10mM) 1.02 ± 0.086.
Consider UniProt Q8N6T7 and related entries, for which the NP40-soluble protein abundance was determined as 0.974 ± 0.053 (concentration: 1mM); 0.954 ± 0.044 (concentration: 2mM); 0.992 ± 0.047 (concentration: 4mM); 0.976 ± 0.09 (concentration: 6mM); 1.02 ± 0.066 (concentration: 8mM); 0.98 ± 0.056 (concentration: 10mM).
Regarding UniProt Q8IW45, the NP40-soluble protein abundance reads like this: (concentration: 1mM) 1 ± 0.019; (concentration: 2mM) 0.973 ± 0.026; (concentration: 4mM) 1.01 ± 0.022; (concentration: 6mM) 1.02 ± 0.031; (concentration: 8mM) 1.01 ± 0.061; (concentration: 10mM) 1.02 ± 0.046.

These data come from the supplement of paper PMC6411743.
